For this assay, the target named is biotinylated TcdB (Clostridioides difficile toxin B) (Clostridioides difficile VPI 10463) (UniProt P18177). Nature of the assay: SPR; biotinylated TcdB (2400 RU) immobilised on a streptavidin sensor chip; defensins injected 4 min, dissociation at least 30 min, 25 µL/min, 25 °C; 10 mM HEPES, 150 mM NaCl, 50 µM EDTA, 0.005% Tween 20, pH 7.0; α-def-6 0.1-6 µM, β-def-1 6 µM; both purified.

Sequences of proteins named here, by UniProt entry; tags and fusion partners are left off.
UniProt P18177: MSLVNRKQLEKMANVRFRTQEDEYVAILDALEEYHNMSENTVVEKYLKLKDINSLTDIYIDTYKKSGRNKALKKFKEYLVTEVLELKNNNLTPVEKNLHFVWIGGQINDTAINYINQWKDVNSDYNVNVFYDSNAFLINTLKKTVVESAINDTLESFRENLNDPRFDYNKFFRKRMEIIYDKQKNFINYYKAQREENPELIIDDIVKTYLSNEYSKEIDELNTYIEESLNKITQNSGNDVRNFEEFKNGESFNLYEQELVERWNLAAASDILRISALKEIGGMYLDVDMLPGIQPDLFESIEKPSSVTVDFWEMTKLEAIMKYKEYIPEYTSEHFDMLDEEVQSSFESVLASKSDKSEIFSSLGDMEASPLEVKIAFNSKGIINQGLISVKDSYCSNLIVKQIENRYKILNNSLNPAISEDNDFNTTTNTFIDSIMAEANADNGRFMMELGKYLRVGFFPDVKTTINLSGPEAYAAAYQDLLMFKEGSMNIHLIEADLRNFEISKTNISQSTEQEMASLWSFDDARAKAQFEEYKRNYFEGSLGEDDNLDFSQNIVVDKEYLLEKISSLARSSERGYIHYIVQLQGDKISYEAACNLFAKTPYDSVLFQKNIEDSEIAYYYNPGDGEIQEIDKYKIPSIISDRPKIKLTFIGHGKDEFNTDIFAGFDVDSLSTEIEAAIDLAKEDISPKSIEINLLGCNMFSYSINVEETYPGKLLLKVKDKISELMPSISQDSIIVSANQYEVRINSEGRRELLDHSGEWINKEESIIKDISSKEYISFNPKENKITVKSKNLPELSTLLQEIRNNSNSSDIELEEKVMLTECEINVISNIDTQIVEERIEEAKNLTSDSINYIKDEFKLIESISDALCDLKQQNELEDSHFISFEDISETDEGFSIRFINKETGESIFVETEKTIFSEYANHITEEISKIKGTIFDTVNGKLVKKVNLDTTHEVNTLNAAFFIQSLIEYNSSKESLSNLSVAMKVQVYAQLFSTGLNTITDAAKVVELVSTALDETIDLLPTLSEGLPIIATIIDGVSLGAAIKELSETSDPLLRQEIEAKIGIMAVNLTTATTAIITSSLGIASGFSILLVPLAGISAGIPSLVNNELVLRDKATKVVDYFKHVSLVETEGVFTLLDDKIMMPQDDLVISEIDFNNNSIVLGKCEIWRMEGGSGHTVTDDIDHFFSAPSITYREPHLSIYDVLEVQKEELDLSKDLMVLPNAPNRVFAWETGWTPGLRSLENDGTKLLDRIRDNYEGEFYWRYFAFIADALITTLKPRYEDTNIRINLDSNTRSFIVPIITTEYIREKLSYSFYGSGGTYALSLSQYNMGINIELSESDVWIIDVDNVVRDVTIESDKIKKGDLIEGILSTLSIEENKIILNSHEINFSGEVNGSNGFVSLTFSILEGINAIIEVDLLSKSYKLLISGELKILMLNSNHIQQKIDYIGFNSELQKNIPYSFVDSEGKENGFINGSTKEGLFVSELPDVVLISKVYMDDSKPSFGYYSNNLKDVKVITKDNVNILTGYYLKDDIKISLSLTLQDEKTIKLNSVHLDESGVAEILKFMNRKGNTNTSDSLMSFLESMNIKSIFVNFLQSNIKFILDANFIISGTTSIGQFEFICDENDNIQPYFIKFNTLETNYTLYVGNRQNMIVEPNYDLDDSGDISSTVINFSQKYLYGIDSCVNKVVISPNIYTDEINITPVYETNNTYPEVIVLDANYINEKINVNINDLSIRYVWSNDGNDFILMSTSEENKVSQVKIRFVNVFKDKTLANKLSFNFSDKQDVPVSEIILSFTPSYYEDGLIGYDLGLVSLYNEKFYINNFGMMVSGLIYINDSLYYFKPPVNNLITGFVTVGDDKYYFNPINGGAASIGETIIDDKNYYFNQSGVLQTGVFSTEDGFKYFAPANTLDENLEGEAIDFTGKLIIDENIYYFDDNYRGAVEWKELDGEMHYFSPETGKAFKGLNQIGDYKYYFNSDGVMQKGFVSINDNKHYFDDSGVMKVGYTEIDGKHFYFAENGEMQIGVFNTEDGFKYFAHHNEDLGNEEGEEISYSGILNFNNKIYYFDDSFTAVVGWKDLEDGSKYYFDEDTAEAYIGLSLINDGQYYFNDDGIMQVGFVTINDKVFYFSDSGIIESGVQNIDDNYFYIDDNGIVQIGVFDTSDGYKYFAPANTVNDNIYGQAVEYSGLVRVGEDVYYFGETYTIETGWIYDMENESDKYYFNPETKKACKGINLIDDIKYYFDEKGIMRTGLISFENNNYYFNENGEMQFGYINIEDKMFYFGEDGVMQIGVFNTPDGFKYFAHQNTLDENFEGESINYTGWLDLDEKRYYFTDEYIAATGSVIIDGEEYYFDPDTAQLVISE

These are yes or no findings as the source states them, for the method shown. Some results given as binding are weak or reduced against the parent protein; the word gives no strength.

B1: β-defensin-1 (peptide, UniProt P60022 33-68)
chain: DHYNCVSSGGQCLYSACPIFTKIQGTCYRGKAKCCK
With B1, the binding entry is “binds weakly”.

These data come from publication PMC9101188, “Human α-Defensin-6 Neutralizes Clostridioides difficile Toxins TcdA and TcdB by Direct Binding” (International Journal of Molecular Sciences, 2022).
